Laboratory results taken from the supplement of paper PMC8728848.
Some of the results follow.

Assays:
Experiment in all cases: glycan array binding signal (z-score within array); higher = stronger binding
Conditions in all cases: glycan notation: IUPAC condensed, linker removed
[1] = target: Fuc(a1-2)Gal(b1-4)[Fuc(a1-3)]GlcNAc
In short: (§1)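 Glycan array binding is given as a within-array Z-score, which can be read as non-binding when negative. The arrays, 3228 of them, came from the Consortium for Functional Glycomics database and were retained only where the protein sequence was available. Z-scores were averaged across arrays of the same protein sequence at different concentrations or buffers and across linkers.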

[2] = target: Fuc(a1-2)Gal(b1-4)[Fuc(a1-3)]GlcNAc(b1-2)Man(a1-3)[Fuc(a1-2)Gal(b1-4)[Fuc(a1-3)]GlcNAc(b1-2)Man(a1-6)]Man(b1-4)GlcNAc(b1-4)GlcNAc
In short: as §1

[3] = target: Fuc(a1-2)Gal(b1-4)[Fuc(a1-3)]GlcNAc(b1-2)[Fuc(a1-2)Gal(b1-4)[Fuc(a1-3)]GlcNAc(b1-4)]Man(a1-3)[Fuc(a1-2)Gal(b1-4)[Fuc(a1-3)]GlcNAc(b1-2)Man(a1-6)]Man(b1-4)GlcNAc(b1-4)GlcNAc
In short: as §1

[4] = target: Fuc(a1-2)Gal(b1-4)[Fuc(a1-3)]GlcNAc(b1-3)Gal(b1-4)[Fuc(a1-3)]GlcNAc
In short: as §1

[5] = target: Fuc(a1-2)Gal(b1-4)[Fuc(a1-3)]GlcNAc(b1-3)Gal(b1-4)[Fuc(a1-3)]GlcNAc(b1-3)Gal(b1-4)[Fuc(a1-3)]GlcNAc
In short: as §1

[6] = target: Fuc(a1-2)Gal(b1-4)[Fuc(a1-3)]GlcNAc(b1-3)GalNAc
In short: as §1

Fuc(a1-2)Gal6S(b1-4)Glc = target: Fuc(a1-2)Gal6S(b1-4)Glc
In short: as §1

[7] = target: Fuc(a1-2)Gal6S(b1-4)Glc6S
In short: as §1

[8] = target: Fuc(a1-2)Gal6S(b1-4)GlcNAc
In short: as §1

Fuc(a1-2)[Gal(a1-3)]Gal = target: Fuc(a1-2)[Gal(a1-3)]Gal
In short: as §1

[9] = target: Fuc(a1-2)[Gal(a1-3)]Gal(b1-3)GalNAc
In short: as §1

[10] = target: Fuc(a1-2)[Gal(a1-3)]Gal(b1-3)GlcNAc
In short: as §1

[11] = target: Fuc(a1-2)[Gal(a1-3)]Gal(b1-3)GlcNAc(b1-2)Man(a1-3)[Fuc(a1-2)[Gal(a1-3)]Gal(b1-3)GlcNAc(b1-2)Man(a1-6)]Man(b1-4)GlcNAc(b1-4)GlcNAc
In short: as §1

[12] = target: Fuc(a1-2)[Gal(a1-3)]Gal(b1-3)GlcNAc(b1-2)Man(a1-3)[Fuc(a1-2)[Gal(a1-3)]Gal(b1-3)GlcNAc(b1-2)Man(a1-6)]Man(b1-4)GlcNAc(b1-4)[Fuc(a1-6)]GlcNAc
In short: as §1

[13] = target: Fuc(a1-2)[Gal(a1-3)]Gal(b1-3)GlcNAc(b1-3)GalNAc
In short: as §1

[14] = target: Fuc(a1-2)[Gal(a1-3)]Gal(b1-4)Glc
In short: as §1

[15] = target: Fuc(a1-2)[Gal(a1-3)]Gal(b1-4)GlcNAc
In short: as §1

[16] = target: Fuc(a1-2)[Gal(a1-3)]Gal(b1-4)GlcNAc(b1-2)Man(a1-3)[Fuc(a1-2)[Gal(a1-3)]Gal(b1-4)GlcNAc(b1-2)Man(a1-6)]Man(b1-4)GlcNAc(b1-4)GlcNAc
In short: as §1

[17] = target: Fuc(a1-2)[Gal(a1-3)]Gal(b1-4)GlcNAc(b1-2)Man(a1-3)[Fuc(a1-2)[Gal(a1-3)]Gal(b1-4)GlcNAc(b1-2)Man(a1-6)]Man(b1-4)GlcNAc(b1-4)[Fuc(a1-6)]GlcNAc
In short: as §1

[18] = target: Fuc(a1-2)[Gal(a1-3)]Gal(b1-4)GlcNAc(b1-3)GalNAc
In short: as §1

[19] = target: Fuc(a1-2)[Gal(a1-3)]Gal(b1-4)[Fuc(a1-3)]Glc
In short: as §1

[20] = target: Fuc(a1-2)[Gal(a1-3)]Gal(b1-4)[Fuc(a1-3)]GlcNAc
In short: as §1

[21] = target: Fuc(a1-2)[Gal(a1-3)]Gal(b1-4)[Fuc(a1-3)]GlcNAc(b1-3)GalNAc
In short: as §1

[22] = target: Fuc(a1-2)[Gal(a1-4)]Gal(b1-4)GlcNAc
In short: as §1

[23] = target: Fuc(a1-2)[GalNAc(a1-3)]Gal
In short: as §1

[24] = target: Fuc(a1-2)[GalNAc(a1-3)]Gal(b1-3)GalNAc(a1-3)[Fuc(a1-2)]Gal(b1-4)GlcNAc
In short: as §1

[25] = target: Fuc(a1-2)[GalNAc(a1-3)]Gal(b1-3)GlcNAc
In short: as §1

[26] = target: Fuc(a1-2)[GalNAc(a1-3)]Gal(b1-3)GlcNAc(b1-2)Man(a1-3)[Fuc(a1-2)[GalNAc(a1-3)]Gal(b1-3)GlcNAc(b1-2)Man(a1-6)]Man(b1-4)GlcNAc(b1-4)GlcNAc
In short: as §1

[27] = target: Fuc(a1-2)[GalNAc(a1-3)]Gal(b1-3)GlcNAc(b1-2)Man(a1-3)[Fuc(a1-2)[GalNAc(a1-3)]Gal(b1-3)GlcNAc(b1-2)Man(a1-6)]Man(b1-4)GlcNAc(b1-4)[Fuc(a1-6)]GlcNAc
In short: as §1

[28] = target: Fuc(a1-2)[GalNAc(a1-3)]Gal(b1-3)GlcNAc(b1-3)GalNAc
In short: as §1

B1: PGP3 (Chlamydia trachomatis), P0CE18 (protein)
chain: MGNSGFYLYNTQNCVFADNIKVGQMTEPLKDQQIILGTTSTPVAAKMTASDGISLTVSNNPSTNASITIGLDAEKAYQLILEKLGDQILGGIADTIVDSTVQDILDKITTDPSLGLLKAFNNFPITNKIQCNGLFTPRNIETLLGGTEIGKFTVTPKSSGSMFLVSADIIASRMEGGVVLALVREGDSKPYAISYGYSSGVPNLCSLRTRIINTGLTPTTYSLRVGGLESGVVWVNALSNGNDILGITNTSNVSFLEVIPQTNA
glycan array binding signal (z-score) [1]: -0.326 | glycan array binding signal (z-score) [2]: 0.025 | glycan array binding signal (z-score) [3]: 1.45 | glycan array binding signal (z-score) [4]: 1.38 | glycan array binding signal (z-score) [5]: -0.982 | glycan array binding signal (z-score) [6]: -0.08 | glycan array binding signal (z-score) (Fuc(a1-2)Gal6S(b1-4)Glc): 0.584 | glycan array binding signal (z-score) [7]: 0.047 | glycan array binding signal (z-score) [8]: -0.593 | glycan array binding signal (z-score) (Fuc(a1-2)[Gal(a1-3)]Gal): -1.07 | glycan array binding signal (z-score) [9]: -0.601 | glycan array binding signal (z-score) [10]: -0.483 | glycan array binding signal (z-score) [11]: 5.67 | glycan array binding signal (z-score) [12]: 0.251 | glycan array binding signal (z-score) [13]: 2.01 | glycan array binding signal (z-score) [14]: -0.321 | glycan array binding signal (z-score) [15]: -1.17 | glycan array binding signal (z-score) [16]: 1.64 | glycan array binding signal (z-score) [17]: 1.23 | glycan array binding signal (z-score) [18]: 1.18 | glycan array binding signal (z-score) [19]: 0.252 | glycan array binding signal (z-score) [20]: 0.436 | glycan array binding signal (z-score) [21]: 0.251 | glycan array binding signal (z-score) [22]: -0.649 | glycan array binding signal (z-score) [23]: -0.523 | glycan array binding signal (z-score) [24]: 0.915 | glycan array binding signal (z-score) [25]: 0.499 | glycan array binding signal (z-score) [26]: 1.15 | glycan array binding signal (z-score) [27]: 1.3 | glycan array binding signal (z-score) [28]: 2.46
